According to EP1688137A1, “SPM 927 for add-on therapy of schizophrenia” (SCHWARZ PHARMA AG, priority 2005, dated 2006):
Entries after “also recorded” stand apart in the source; their conditions may differ. At least one compound was matched to its structure with a doubt left.

Test system: C57BL/6J mice
Experiment: prepulse inhibition (PPI) of the acoustic startle reflex, animal model for schizophrenia
Type: in vivo
Conditions: for potentiation of the effect of clozapine on prepulse inhibition: compared to clozapine alone
Method: Some anti-epileptic drugs have proven pre-clinical and/or clinical efficacy as add-on therapy for schizophrenia. SPM 927 was tested in a simple animal model with predictive validity for schizophrenia (i.e. prepulse inhibition (PPI) of the acoustic startle reflex). SPM 927 was tested alone and in combination with the atypical antipsychotic drug clozapine.
The acoustic startle is an unconditioned reflex response to an external auditory stimulation. PPI refers to the reduction in the startle response caused by the presentation of a low-intensity auditory stimulus prior to the startle stimulus. The PPI paradigm is the choice for the study of schizophrenia and antipsychotic action due to the similarities between the results from human and rodent studies. Antipsychotic drugs, such as clozapine, result in a dose-dependent increase in PPI in mice. Thus, an increase of PPI in normal mice may be indicative of antipsychotic efficacy.
C57BL/6J mice obtained from the Jackson Laboratory, Bar Harbor, Maine were received at the age of 6 weeks and were assigned unique identification numbers (tail marked). Animals were housed 4 per cage in polycarbonate cages with filter tops and acclimated for 7 days. All animals were examined, handled, and weighed prior to initiation of the study to assure adequate health and suitability and to minimize non-specific stress associated with manipulation.
During the course of the study, 12/12 light/dark cycles and a room temperature of 20 to 23°C were maintained with a relative humidity maintained around 50%. Chow and water were provided ad libitum for the duration of the study. Each mouse was randomly assigned across the treatment groups and balanced by cage numbers. The test was performed during the animal's light cycle phase. Twelve animals were used in each treatment group.
SPM 927 was dissolved in Saline (0.9% NaCl in sterile H2O). Clozapine was dissolved in 1 % Tween 80 in sterile H2O at a final pH of 6.0. […] Doses are expressed as mg of salt. […]
Animals were placed in the PPI chambers (Med Associates) for a 5 min session of white noise (70 dB) habituation. […] Each trial started with a 50 ms null period during which baseline movements are recorded. There was a subsequent 20 ms period during which prepulse stimuli were presented and responses to the prepulse measured. After further 100 ms the startle stimuli were presented for 40 ms and responses recorded for 100 ms from startle onset. […] In startle alone trials the basic auditory startle is measured and in prepulse plus startle trials the amount of inhibition of the normal startle is determined and expressed as a percentage of the basic startle response (from startle alone trials), excluding the startle response of the first habituation block. […]

COC[C@@H](NC(C)=O)C(=O)NCc1ccccc1 [SPM 927, (R)-2-acetamide-N-benzyl-3-methoxypropionamide]
potentiation of the effect of clozapine on prepulse inhibition (SPM 927 30 mg/kg in combination with clozapine, p<0.05): did potentiate the effect of clozapine alone on prepulse inhibition | potentiation of the effect of clozapine on prepulse inhibition (SPM 927 3 or 10 mg/kg in combination with clozapine): not at 3 or 10 mg/kg | effect on prepulse inhibition (SPM 927 administered alone, any dose tested, compared to vehicle): did not have any significant effect on prepulse inhibition; also recorded: had no significant effect on prepulse inhibition | potentiation of the increase of prepulse inhibition of an antipsychotic drug (SPM 927 administered together with clozapine, dose not given): potentiated the increase of prepulse inhibition
